According to patent US9023873B2, “Insecticidal 2-methoxybenzamide derivatives” (Syngenta Participations AG, priority 2011, dated 2015):
Some results were stated once for a whole list of compounds, not compound by compound.

How the values were obtained:
Assay type in all cases: in vivo
[1] = system: Spodoptera littoralis (Egyptian cotton leafworm); experiment: Spodoptera littoralis cotton leaf disc spray test; conditions: 200 ppm spray on cotton leaf discs, L1 larvae, mortality, feeding behavior, growth regulation 3 days after treatment
[2] = system: Heliothis virescens (Tobacco budworm); experiment: Heliothis virescens egg test on artificial diet; conditions: 200 ppm (concentration in well 18 ppm), eggs 0-24 h old on artificial diet, 4 days; egg mortality, larval mortality, growth regulation
[3] = system: Plutella xylostella (Diamond back moth); experiment: Plutella xylostella larval test on artificial diet; conditions: 200 ppm (concentration in well 18 ppm), L2 larvae, 6 days, larval mortality, growth regulation
[4] = system: Diabrotica balteata (Corn root worm); experiment: Diabrotica balteata larval test on artificial diet; conditions: 200 ppm (concentration in well 18 ppm), L2 larvae, 5 days, larval mortality, growth regulation
[5] = system: Thrips tabaci (Onion thrips); experiment: Thrips tabaci sunflower leaf disc spray test; conditions: 200 ppm spray on sunflower leaf discs, population of mixed ages, 7 days; mortality
[6] = system: Tetranychus urticae (Two-spotted spider mite); experiment: Tetranychus urticae bean leaf disc spray test; conditions: 200 ppm spray on bean leaf discs, mite populations of mixed ages, 8 days; egg, larval and adult mortality
[7] = system: Myzus persicae (Green peach aphid); experiment: Myzus persicae sunflower leaf disc spray test; conditions: 200 ppm spray on sunflower leaf discs, aphid population of mixed ages, 6 DAT; mortality

CCc1cc(C(F)(C(F)(F)F)C(F)(F)C(F)(F)F)cc(C)c1NC(=O)c1cccc(NC(=O)c2ccnc(Cl)c2)c1OC (stereo not drawn) [Compound A1]
at least 80%: control of Spodoptera littoralis [1] | control of Heliothis virescens [2] | control of Plutella xylostella [3] | control of Diabrotica balteata [4] | control of Thrips tabaci [5] | control of Tetranychus urticae [6] | control of Myzus persicae [7]

COc1c(NC(=O)c2ccncc2C)cccc1C(=O)Nc1c(Cl)cc(C(F)(C(F)(F)F)C(F)(F)C(F)(F)F)cc1Br (stereo not drawn) [Compound B4]
at least 80%: control of Spodoptera littoralis [1] | control of Heliothis virescens [2] | control of Plutella xylostella [3] | control of Diabrotica balteata [4] | control of Thrips tabaci [5] | control of Tetranychus urticae [6] | control of Myzus persicae [7]

COc1c(NC(=O)c2ccnc(C)c2Cl)cccc1C(=O)Nc1c(Cl)cc(C(F)(C(F)(F)F)C(F)(F)C(F)(F)F)cc1Br (stereo not drawn) [Compound B5]
at least 80%: control of Spodoptera littoralis [1] | control of Heliothis virescens [2] | control of Plutella xylostella [3] | control of Diabrotica balteata [4] | control of Thrips tabaci [5] | control of Tetranychus urticae [6] | control of Myzus persicae [7]

C=CCN(C(=O)c1cccc(NC(=O)c2cc[n+]([O-])cc2)c1OC)c1c(Cl)cc(C(F)(C(F)(F)F)C(F)(F)F)cc1Br [Compound D31]
at least 80%: control of Spodoptera littoralis [1] | control of Heliothis virescens [2] | control of Plutella xylostella [3] | control of Diabrotica balteata [4] | control of Thrips tabaci [5] | control of Tetranychus urticae [6] | control of Myzus persicae [7]

COc1cc(C(=O)N(C)c2cccc(C(=O)Nc3c(Cl)cc(C(F)(C(F)(F)F)C(F)(F)F)cc3Br)c2OC)cc(Cl)n1 [Compound D32]
at least 80%: control of Spodoptera littoralis [1] | control of Heliothis virescens [2] | control of Plutella xylostella [3] | control of Diabrotica balteata [4] | control of Thrips tabaci [5] | control of Tetranychus urticae [6] | control of Myzus persicae [7]

COc1c(C(=O)Nc2c(Cl)cc(C(F)(C(F)(F)F)C(F)(F)F)cc2Br)cccc1N(C)C(=O)c1ccnc(Cl)c1 [Compound D33]
at least 80%: control of Spodoptera littoralis [1] | control of Heliothis virescens [2] | control of Plutella xylostella [3] | control of Diabrotica balteata [4] | control of Thrips tabaci [5] | control of Tetranychus urticae [6] | control of Myzus persicae [7]

COc1c(C(=O)Nc2c(Cl)cc(C(F)(C(F)(F)F)C(F)(F)F)cc2Br)cccc1N(C)C(=O)c1cc(Cl)nc(Cl)c1 [Compound D34]
at least 80%: control of Spodoptera littoralis [1] | control of Heliothis virescens [2] | control of Plutella xylostella [3] | control of Diabrotica balteata [4] | control of Thrips tabaci [5] | control of Tetranychus urticae [6] | control of Myzus persicae [7]

COc1c(C(=O)Nc2c(Cl)cc(C(F)(C(F)(F)F)C(F)(F)F)cc2Br)cccc1N(C)C(=O)c1ccc(Cl)nc1 [Compound D37]
at least 80%: control of Spodoptera littoralis [1] | control of Heliothis virescens [2] | control of Plutella xylostella [3] | control of Diabrotica balteata [4] | control of Thrips tabaci [5] | control of Tetranychus urticae [6] | control of Myzus persicae [7]

COc1c(NC(=O)c2ccncc2)cccc1C(=O)Nc1c(C)cc(C(F)(C(F)(F)F)C(F)(F)F)cc1C [Compound E1]
at least 80%: control of Spodoptera littoralis [1] | control of Heliothis virescens [2] | control of Plutella xylostella [3] | control of Diabrotica balteata [4] | control of Thrips tabaci [5] | control of Tetranychus urticae [6] | control of Myzus persicae [7]

COc1c(NC(=O)c2cc[n+]([O-])cc2)cccc1C(=O)Nc1c(C)cc(C(F)(C(F)(F)F)C(F)(F)F)cc1C [Compound E2]
at least 80%: control of Spodoptera littoralis [1] | control of Heliothis virescens [2] | control of Plutella xylostella [3] | control of Diabrotica balteata [4] | control of Thrips tabaci [5] | control of Tetranychus urticae [6] | control of Myzus persicae [7]

COc1c(NC(=O)c2cccnc2)cccc1C(=O)Nc1c(C)cc(C(F)(C(F)(F)F)C(F)(F)F)cc1C [Compound E3]
at least 80%: control of Spodoptera littoralis [1] | control of Heliothis virescens [2] | control of Plutella xylostella [3] | control of Diabrotica balteata [4] | control of Thrips tabaci [5] | control of Tetranychus urticae [6] | control of Myzus persicae [7]

CCc1cc(C(F)(C(F)(F)F)C(F)(F)F)cc(C)c1NC(=O)c1cccc(NC(=O)c2ccncc2)c1OC [Compound F1]
at least 80%: control of Heliothis virescens [2] | control of Plutella xylostella [3] | control of Diabrotica balteata [4] | control of Thrips tabaci [5] | control of Tetranychus urticae [6] | control of Myzus persicae [7]

CCc1cc(C(F)(C(F)(F)F)C(F)(F)F)cc(C)c1NC(=O)c1cccc(NC(=O)c2ccnc(Cl)c2)c1OC [Compound F2]
at least 80%: control of Spodoptera littoralis [1] | control of Heliothis virescens [2] | control of Plutella xylostella [3] | control of Diabrotica balteata [4] | control of Thrips tabaci [5] | control of Tetranychus urticae [6] | control of Myzus persicae [7]

CCc1cc(C(F)(C(F)(F)F)C(F)(F)F)cc(C)c1NC(=O)c1cccc(N(CC)C(=O)c2ccncc2)c1OC [Compound F4]
at least 80%: control of Spodoptera littoralis [1] | control of Heliothis virescens [2] | control of Plutella xylostella [3] | control of Diabrotica balteata [4] | control of Thrips tabaci [5] | control of Tetranychus urticae [6] | control of Myzus persicae [7]

CCc1cc(C(F)(C(F)(F)F)C(F)(F)F)cc(C)c1NC(=O)c1cccc(NC(=O)c2cccnc2)c1OC [Compound F5]
at least 80%: control of Spodoptera littoralis [1] | control of Heliothis virescens [2] | control of Plutella xylostella [3] | control of Diabrotica balteata [4] | control of Thrips tabaci [5] | control of Tetranychus urticae [6] | control of Myzus persicae [7]

CCc1cc(C(F)(C(F)(F)F)C(F)(F)F)cc(C)c1NC(=O)c1cccc(N(CC)C(=O)c2cccnc2)c1OC [Compound F7]
at least 80%: control of Spodoptera littoralis [1] | control of Heliothis virescens [2] | control of Plutella xylostella [3] | control of Diabrotica balteata [4] | control of Thrips tabaci [5] | control of Tetranychus urticae [6] | control of Myzus persicae [7]
